Reference: patent US20160340415A1
No constants are given. Whether binding was seen depends on the method and setting. Binding seen in cells or lysates may run through a third protein. Some binding calls cover weakened binding; strength is not graded here.

Target: T1, LukH_MSHR1132 (Staphylococcus aureus MSHR1132)
T1 sequence: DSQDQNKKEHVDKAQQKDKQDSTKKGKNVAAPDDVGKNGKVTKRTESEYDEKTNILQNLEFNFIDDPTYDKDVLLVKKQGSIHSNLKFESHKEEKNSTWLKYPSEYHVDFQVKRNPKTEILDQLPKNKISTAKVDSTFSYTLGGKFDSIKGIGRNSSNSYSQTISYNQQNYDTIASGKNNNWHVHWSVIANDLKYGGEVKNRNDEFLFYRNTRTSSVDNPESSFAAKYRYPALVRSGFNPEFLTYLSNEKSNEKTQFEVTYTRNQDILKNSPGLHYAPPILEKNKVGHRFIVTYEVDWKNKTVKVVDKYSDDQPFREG
Assay: co-expression in E. coli; IMAC through NusA/His6 on LukG, with un-tagged LukH co-purified; the complex was kept through tag removal and cation exchange

B1: LukG_MSHR1132 (protein)
chain: KIKSEITQVSEQNIDGNTKMFTRTATTSDSQKKISQSLQFNFLTEPNYDKETVFIKAKGTIGSGLKILDPNGYWNSTLRWPGSYSVSIQNVDNNTNTKVTDFAPKNQDETREVKYTYGYKTGGDFSISPGGITGNITKERNYSETISYQQPSYRTLIDQPATNKGVGWKVEAHLINNMGHDHTRQLTNDSDNRVGSEIFTLTRNGNLWAKDNFTPKNKMPVTVSEGFNPEFLAVMSHDKKDKGKSKFVVHYKRTMDDFKIDWMRHGFWGYWTGKNHVDQKEEKLSALYEVDWKTHDVKFIKALDDKEKK
binding: binds
